According to paper PMC8434012 (Molecules, 2021):
Several values for one entry are separate records, joined by “and”; a condition that tells them apart may be missing. Equal entries are not always repeated. Structures can show the parent of a compound that is named as a salt. Where two headings read alike, the source gives them in different places.

Columns and labels:
[1] = small intestine S9 fraction, 1 µg/mL donepezil, without/with 1 µg/mL WMP, 30 min, 37 °C, NADPH and UDPGA
[2] = liver S9 fraction, 1 µg/mL donepezil, without/with 1 µg/mL WMP, 30 min, 37 °C, NADPH and UDPGA
[3] = cited from earlier work
[4] = Pharmacokinetics of donepezil after oral administration of DNP with and without WMP
[5] = Tissue distribution of donepezil after oral administration of DNP with and without WMP; conditions: mouse, in vivo, mice, oral DNP as 10 mg/kg donepezil, without/with WMP 300 mg/kg
[6] = intercompartmental constant, mice, oral DNP as 10 mg/kg donepezil, without/with WMP 300 mg/kg
[7] = mice, oral DNP as 10 mg/kg donepezil, without/with WMP 300 mg/kg
[8] = 10 mg/kg (as donepezil), donepezil concentration in kidney
[9] = 10 mg/kg, donepezil concentration in brain
[10] = 10 mg/kg, donepezil concentration in large intestine
[11] = 10 mg/kg, donepezil concentration in plasma
[12] = 10 mg/kg, donepezil concentration in small intestine
[13] = 10 mg/kg, donepezil concentration in stomach

Q: For COc1cc2c(cc1OC)C(=O)C(CC1CCN(Cc3ccccc3)CC1)C2 (stereo not shown) [DNP, Donepezil hydrochloride], which “disappeared percentage of donepezil” value [1] is on record?
A: Its value is 14.9 ± 4.73%.

Q: And the “disappeared percentage of donepezil” value [2]?
A: Its value is 54.7 ± 12.8%.

Q: What about the “disappeared percentage of donepezil” value ([2]; listed as donepezil) of the same compound?
A: Its value is 54.7%.

Q: And the “donepezil's metabolites excreted into urine” value ([3]; rat, in vivo, po)?
A: Its value is 35.4%.

Q: And the Tmax ([3]; rats, oral [14C]donepezil)?
A: Its Tmax is 30 min.

Q: And the systemic bioavailability ([3]; rats, oral [14C]donepezil)?
A: The systemic bioavailability was “approximately 86.8%”.

Q: What about the ka of donepezil ([4]; first-order absorption rate constant, mice, oral DNP as 10 mg/kg donepezil, without/with WMP 300 mg/kg) of the same compound?
A: The ka of donepezil was 0.071 ± 0.031 min⁻¹.

Q: What about the k12 of donepezil [4, 6] of the same compound?
A: The k12 of donepezil was 0.014 ± 0.010 min⁻¹.

Q: What about the k21 of donepezil [4, 6] of the same compound?
A: Its k21 of donepezil is 0.0087 ± 0.0058 min⁻¹.

Q: What about the “Ae0–24 h, donepezil excreted into urine for 24 h” value [4, 7] of the same compound?
A: Its value is 1.65 % of dose and 1.65 ± 0.35 % of dose.

Q: And the “GI24 h, unabsorbed and/or biliary excreted donepezil at 24 h” value [4, 7]?
A: Its value is 0.0361 % of dose and 0.036 ± 0.02 % of dose.

Q: And the AUC(0-t) ([4]; mouse, in vivo, po, 10 mg/kg)?
A: The AUC(0-t) was 270 ng·h/mL.

Q: What about the Cmax ([4]; mouse, in vivo, po, 10 mg/kg) of the same compound?
A: Its Cmax is 240 ± 120 ng/mL.

Q: And the Tmax ([4]; mouse, in vivo, po, 10 mg/kg)?
A: The Tmax was 15 min.

Q: And the Vp/F of donepezil ([4]; two-compartment model, mice, oral DNP as 10 mg/kg donepezil, without/with WMP 300 mg/kg)?
A: Its Vp/F of donepezil is 4.16044 ± 0.59225 L/kg.

Q: What about the concentration at 1 h [5, 8] of the same compound?
A: Its concentration at 1 h is 10300 ± 6550 ng/g.

Q: What about the concentration at 4 h [5, 8] of the same compound?
A: Its concentration at 4 h is 960 ± 170 ng/g.

Q: And the concentration at 1 h ([5]; 10 mg/kg (as donepezil), donepezil concentration in liver)?
A: Its concentration at 1 h is 15100 ± 2230 ng/g.

Q: And the concentration at 1 h [5, 9]?
A: The concentration at 1 h was 2170 ± 1210 ng/g.

Q: And the concentration at 4 h [5, 9]?
A: Its concentration at 4 h is 220 ± 80 ng/g.

Q: And the concentration at 1 h [5, 10]?
A: Its concentration at 1 h is 15300 ± 5500 ng/g.

Q: What about the concentration at 4 h [5, 10] of the same compound?
A: Its concentration at 4 h is 2390 ± 620 ng/g.

Q: What about the concentration at 1 h [5, 11] of the same compound?
A: The concentration at 1 h was 100 ± 50 ng/mL.

Q: And the concentration at 4 h [5, 11]?
A: Its concentration at 4 h is 20 ± 10 ng/mL.

Q: What about the concentration at 1 h [5, 12] of the same compound?
A: The concentration at 1 h was 15800 ± 7930 ng/g.

Q: And the concentration at 4 h [5, 12]?
A: Its concentration at 4 h is 3330 ± 1540 ng/g.

Q: What about the concentration at 1 h [5, 13] of the same compound?
A: Its concentration at 1 h is 23600 ± 5790 ng/g.

Q: And the concentration at 4 h [5, 13]?
A: Its concentration at 4 h is 3350 ± 1530 ng/g.
